Data from the supplement of paper PMC10849652.
The list shows a part of the results.

The chains behind the UniProt entries cited, without tags or fusion partners. Where a name states a change or a piece, a line headed by the entry shows the natural chain unless it says otherwise.
UniProt Q96MH6: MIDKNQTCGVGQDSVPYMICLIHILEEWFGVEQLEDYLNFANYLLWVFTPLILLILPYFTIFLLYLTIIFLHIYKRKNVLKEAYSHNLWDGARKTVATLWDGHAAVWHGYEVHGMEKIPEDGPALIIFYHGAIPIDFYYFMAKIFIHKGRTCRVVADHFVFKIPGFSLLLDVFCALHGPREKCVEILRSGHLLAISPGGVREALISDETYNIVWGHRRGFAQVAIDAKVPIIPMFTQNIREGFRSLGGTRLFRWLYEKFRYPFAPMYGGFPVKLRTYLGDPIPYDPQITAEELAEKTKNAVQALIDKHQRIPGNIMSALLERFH
UniProt P11387: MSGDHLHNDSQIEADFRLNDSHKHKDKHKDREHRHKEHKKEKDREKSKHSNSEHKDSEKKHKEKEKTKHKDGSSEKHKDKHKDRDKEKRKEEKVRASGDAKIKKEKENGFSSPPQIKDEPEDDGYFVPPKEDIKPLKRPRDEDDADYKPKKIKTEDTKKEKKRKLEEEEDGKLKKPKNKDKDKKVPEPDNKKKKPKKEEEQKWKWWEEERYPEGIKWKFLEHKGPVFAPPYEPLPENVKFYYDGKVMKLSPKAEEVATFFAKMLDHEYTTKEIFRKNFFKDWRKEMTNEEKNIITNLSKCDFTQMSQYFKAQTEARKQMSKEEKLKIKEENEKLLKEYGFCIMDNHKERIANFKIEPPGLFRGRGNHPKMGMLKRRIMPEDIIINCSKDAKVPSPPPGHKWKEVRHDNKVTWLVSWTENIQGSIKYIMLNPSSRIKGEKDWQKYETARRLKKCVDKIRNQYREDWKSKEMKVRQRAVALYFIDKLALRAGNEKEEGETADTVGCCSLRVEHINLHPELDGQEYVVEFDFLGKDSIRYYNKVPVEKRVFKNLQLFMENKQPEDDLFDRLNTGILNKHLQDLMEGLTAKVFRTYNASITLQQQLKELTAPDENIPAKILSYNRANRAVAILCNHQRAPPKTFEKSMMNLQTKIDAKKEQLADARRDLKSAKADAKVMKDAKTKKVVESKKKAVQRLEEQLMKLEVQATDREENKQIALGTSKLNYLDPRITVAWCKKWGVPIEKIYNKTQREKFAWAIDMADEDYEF
UniProt Q9NV96: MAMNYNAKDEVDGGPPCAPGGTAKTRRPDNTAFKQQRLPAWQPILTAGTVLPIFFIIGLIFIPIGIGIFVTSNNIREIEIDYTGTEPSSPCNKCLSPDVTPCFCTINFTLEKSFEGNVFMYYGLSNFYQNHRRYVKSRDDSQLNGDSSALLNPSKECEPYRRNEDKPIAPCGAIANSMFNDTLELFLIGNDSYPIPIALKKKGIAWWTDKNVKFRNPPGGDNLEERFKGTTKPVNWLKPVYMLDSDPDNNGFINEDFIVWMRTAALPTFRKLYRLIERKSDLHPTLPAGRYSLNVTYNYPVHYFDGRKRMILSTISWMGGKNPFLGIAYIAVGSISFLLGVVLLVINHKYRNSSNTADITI
UniProt O60784, whole entry, looked up: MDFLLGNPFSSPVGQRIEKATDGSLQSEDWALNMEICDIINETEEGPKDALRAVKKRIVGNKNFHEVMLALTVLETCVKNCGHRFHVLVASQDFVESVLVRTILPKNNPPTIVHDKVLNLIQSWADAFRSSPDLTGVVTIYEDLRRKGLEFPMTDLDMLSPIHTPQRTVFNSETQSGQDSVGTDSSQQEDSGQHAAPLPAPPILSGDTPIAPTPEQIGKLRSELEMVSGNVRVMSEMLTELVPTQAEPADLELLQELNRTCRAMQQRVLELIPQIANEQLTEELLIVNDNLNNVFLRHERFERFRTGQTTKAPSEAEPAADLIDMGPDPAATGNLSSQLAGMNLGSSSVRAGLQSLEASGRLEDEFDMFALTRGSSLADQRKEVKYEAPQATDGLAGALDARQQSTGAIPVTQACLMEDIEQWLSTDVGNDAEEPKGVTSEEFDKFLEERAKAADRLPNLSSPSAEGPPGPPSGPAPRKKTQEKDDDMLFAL
UniProt Q71RG4: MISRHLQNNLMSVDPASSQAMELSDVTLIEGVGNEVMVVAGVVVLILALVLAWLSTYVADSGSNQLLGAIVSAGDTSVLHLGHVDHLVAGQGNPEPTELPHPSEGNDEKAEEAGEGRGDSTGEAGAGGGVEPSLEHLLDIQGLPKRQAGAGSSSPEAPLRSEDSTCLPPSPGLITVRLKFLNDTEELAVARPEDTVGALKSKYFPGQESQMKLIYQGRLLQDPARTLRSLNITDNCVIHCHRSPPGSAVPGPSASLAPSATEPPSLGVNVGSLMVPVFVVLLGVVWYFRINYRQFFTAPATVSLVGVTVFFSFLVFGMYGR
UniProt O14773: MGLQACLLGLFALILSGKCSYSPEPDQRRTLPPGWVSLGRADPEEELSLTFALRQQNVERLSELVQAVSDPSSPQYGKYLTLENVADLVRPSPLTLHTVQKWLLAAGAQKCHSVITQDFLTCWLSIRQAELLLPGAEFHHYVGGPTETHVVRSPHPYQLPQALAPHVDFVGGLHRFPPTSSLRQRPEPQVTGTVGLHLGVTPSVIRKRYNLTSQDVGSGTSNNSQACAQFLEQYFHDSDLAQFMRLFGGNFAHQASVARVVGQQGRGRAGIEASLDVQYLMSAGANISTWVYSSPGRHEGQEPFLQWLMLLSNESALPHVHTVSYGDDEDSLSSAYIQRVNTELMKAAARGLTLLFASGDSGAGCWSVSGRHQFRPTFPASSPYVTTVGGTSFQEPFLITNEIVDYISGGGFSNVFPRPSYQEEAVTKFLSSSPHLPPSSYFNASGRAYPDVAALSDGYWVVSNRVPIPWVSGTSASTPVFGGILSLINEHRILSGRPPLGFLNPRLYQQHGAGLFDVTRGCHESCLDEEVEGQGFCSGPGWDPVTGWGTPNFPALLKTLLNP
UniProt Q5SWH9: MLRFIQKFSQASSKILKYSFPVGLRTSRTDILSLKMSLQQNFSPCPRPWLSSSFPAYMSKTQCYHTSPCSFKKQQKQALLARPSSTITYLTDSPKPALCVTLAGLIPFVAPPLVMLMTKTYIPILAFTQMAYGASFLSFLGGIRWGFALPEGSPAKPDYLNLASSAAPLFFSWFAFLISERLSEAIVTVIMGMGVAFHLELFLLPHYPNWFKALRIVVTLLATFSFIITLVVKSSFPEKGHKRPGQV
UniProt Q02880: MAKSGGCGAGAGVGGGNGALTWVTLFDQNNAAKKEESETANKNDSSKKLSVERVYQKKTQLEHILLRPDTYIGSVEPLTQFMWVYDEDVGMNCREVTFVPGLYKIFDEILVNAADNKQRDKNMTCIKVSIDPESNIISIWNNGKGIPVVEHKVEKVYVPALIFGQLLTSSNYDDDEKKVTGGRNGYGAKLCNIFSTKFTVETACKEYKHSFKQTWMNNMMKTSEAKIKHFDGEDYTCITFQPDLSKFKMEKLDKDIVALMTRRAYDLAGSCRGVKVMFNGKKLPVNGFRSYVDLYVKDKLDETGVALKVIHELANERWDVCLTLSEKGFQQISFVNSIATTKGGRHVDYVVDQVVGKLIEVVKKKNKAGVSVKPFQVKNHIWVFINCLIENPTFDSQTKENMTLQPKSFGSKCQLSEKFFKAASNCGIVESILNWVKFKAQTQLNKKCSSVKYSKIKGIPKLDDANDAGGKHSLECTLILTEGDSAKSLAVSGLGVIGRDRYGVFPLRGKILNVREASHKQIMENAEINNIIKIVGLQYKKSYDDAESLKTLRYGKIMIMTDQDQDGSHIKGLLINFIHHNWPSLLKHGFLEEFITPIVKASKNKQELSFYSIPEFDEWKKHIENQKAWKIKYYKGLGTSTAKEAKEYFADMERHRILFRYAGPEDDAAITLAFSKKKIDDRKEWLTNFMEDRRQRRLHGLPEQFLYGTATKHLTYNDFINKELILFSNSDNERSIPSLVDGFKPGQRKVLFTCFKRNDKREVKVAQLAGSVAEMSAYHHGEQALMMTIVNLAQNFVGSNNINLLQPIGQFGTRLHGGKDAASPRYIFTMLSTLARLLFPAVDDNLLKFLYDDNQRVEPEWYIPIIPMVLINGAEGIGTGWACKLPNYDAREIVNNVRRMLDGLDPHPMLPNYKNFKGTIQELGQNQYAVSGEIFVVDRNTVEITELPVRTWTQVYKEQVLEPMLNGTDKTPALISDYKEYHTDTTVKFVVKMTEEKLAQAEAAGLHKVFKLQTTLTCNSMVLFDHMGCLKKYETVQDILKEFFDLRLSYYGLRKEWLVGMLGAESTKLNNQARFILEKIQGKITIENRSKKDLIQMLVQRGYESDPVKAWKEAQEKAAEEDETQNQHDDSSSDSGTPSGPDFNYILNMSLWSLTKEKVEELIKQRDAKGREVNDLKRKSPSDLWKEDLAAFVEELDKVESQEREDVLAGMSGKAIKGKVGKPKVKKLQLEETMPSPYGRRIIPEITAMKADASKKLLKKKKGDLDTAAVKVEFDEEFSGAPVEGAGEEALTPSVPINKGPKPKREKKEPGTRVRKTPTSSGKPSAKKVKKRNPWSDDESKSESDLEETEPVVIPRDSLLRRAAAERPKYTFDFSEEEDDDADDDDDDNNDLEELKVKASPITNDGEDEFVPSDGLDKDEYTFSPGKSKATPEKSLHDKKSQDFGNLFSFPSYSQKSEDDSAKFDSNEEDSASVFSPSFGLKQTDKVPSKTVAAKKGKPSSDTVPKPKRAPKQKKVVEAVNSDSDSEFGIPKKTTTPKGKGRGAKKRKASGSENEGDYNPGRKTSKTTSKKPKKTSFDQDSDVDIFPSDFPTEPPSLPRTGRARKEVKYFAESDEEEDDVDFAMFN
UniProt Q9P0U1: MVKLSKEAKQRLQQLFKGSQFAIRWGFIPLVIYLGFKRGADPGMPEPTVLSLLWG
UniProt Q13625: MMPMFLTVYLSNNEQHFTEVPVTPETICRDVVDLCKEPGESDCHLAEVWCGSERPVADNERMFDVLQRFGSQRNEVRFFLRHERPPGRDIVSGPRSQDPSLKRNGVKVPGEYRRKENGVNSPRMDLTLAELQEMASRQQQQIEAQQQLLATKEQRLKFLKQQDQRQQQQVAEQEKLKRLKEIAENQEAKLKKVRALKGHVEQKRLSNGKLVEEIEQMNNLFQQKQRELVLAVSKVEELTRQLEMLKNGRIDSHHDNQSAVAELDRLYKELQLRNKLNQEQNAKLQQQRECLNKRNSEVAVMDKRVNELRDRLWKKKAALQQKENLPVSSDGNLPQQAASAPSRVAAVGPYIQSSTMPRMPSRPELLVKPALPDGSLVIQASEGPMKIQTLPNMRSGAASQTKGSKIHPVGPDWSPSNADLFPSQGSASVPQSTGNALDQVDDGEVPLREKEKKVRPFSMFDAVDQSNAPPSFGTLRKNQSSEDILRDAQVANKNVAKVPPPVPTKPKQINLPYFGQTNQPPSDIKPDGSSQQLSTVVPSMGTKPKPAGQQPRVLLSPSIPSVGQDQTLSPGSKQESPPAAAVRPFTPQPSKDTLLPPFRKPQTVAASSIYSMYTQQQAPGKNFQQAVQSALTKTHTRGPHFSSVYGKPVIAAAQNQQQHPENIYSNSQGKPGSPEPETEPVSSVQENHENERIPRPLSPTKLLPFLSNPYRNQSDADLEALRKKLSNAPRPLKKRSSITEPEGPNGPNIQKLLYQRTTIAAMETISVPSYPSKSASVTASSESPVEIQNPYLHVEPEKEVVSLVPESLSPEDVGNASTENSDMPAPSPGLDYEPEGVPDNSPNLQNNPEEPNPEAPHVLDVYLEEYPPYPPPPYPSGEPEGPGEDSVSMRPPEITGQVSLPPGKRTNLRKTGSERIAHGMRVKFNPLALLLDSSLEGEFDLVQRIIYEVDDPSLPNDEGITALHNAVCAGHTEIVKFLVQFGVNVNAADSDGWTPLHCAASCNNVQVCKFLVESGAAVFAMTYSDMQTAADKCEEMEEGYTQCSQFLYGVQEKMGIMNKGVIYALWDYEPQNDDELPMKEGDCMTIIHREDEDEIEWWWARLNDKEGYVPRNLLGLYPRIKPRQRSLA
UniProt Q9NXH8: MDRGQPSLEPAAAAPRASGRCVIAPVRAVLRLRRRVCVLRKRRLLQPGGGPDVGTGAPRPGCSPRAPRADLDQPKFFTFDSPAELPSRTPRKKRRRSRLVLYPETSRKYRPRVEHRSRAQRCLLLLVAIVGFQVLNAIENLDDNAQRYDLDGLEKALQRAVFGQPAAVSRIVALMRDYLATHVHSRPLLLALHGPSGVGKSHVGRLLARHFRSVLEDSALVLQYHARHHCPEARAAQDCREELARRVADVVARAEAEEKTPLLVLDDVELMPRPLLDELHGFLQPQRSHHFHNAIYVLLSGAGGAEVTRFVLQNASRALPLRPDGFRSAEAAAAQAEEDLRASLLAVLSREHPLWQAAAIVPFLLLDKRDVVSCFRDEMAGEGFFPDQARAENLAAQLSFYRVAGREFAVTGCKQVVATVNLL
UniProt Q9BUB7: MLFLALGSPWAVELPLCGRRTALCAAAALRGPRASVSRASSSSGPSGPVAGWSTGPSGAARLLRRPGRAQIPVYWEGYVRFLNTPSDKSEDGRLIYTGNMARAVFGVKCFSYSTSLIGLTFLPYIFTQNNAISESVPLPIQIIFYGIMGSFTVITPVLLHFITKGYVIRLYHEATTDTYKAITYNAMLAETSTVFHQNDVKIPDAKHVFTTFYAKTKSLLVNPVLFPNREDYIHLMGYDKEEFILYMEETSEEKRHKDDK

Key:
Test in all cases: log2 fold change, soluble protein after heating vs DMSO (PISA); higher = thermal stabilisation; K562 lysate, 10 uM; active = over 0.2 and 3.5 SD of the protein, either way, in both replicates (recomputed)
vemurafenib = compound: CCCS(=O)(=O)Nc1ccc(F)c(C(=O)c2c[nH]c3ncc(-c4ccc(Cl)cc4)cc23)c1F [vemurafenib]
Method in brief: (§1)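 A 30 min treatment with 10 μM compound was applied to crude K562 extract at 1 mg/mL protein in PBS pH 7.4 with 1 mM MgCl2. Heating for 3 min spanned 48°C-58°C, after which aliquots were pooled, adjusted to 0.5% NP-40 at 4°C and spun at 21,000xg for 90 min. TMTpro 16plex LC-MS/MS of the supernatant, with channel sums equalised, gave values recorded as log-two fold change in thermal stability against solvent controls, from duplicates.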

[1] = compound: CCCS(=O)(=O)Nc1ccc(F)c(C(=O)c2c[nH]c3ncc(Cl)cc23)c1F
Method in brief: as §1

barasertib = compound: CCN(CCCOc1ccc2c(Nc3cc(CC(=O)Nc4cccc(F)c4)[nH]n3)ncnc2c1)CCOP(=O)(O)O [barasertib]
Method in brief: as §1

[2] = compound: CC[C@@H]1C(=O)N(C)c2cnc(Nc3ccc(C(=O)NC4CCN(C)CC4)cc3OC)nc2N1C1CCCC1
Method in brief: as §1

volasertib = compound: CC[C@@H]1C(=O)N(C)c2cnc(Nc3ccc(C(=O)N[C@H]4CC[C@H](N5CCN(CC6CC6)CC5)CC4)cc3OC)nc2N1C(C)C [volasertib]
Method in brief: as §1

[3] = compound: CCn1c(C(=O)N(C2CC2)C2CC2)cc2c3c(ncn3C)c(Nc3cc(C)n(C)n3)nc21
Method in brief: as §1

[4] = compound: CCn1cc(-c2ccnc3[nH]c(-c4cccc(CN(C)C)c4)cc23)c(-c2ccc(NC(=O)N(C)C)cc2)n1
Method in brief: as §1

[5] = compound: CN1CCC(CNc2ccc3ncc(-c4cccc(OC(F)(F)F)c4)n3n2)CC1
Method in brief: as §1

saracatinib = compound: CN1CCN(CCOc2cc(OC3CCOCC3)c3c(Nc4c(Cl)ccc5c4OCO5)ncnc3c2)CC1 [saracatinib]
Method in brief: as §1

sotrastaurin = compound: CN1CCN(c2nc(C3=C(c4c[nH]c5ccccc45)C(=O)NC3=O)c3ccccc3n2)CC1 [sotrastaurin]
Method in brief: as §1

alvocidib = compound: CN1CC[C@H](c2c(O)cc(O)c3c(=O)cc(-c4ccccc4Cl)oc23)[C@H](O)C1 [alvocidib]
Method in brief: as §1

Tubastatin A = compound: CN1CCc2c(c3ccccc3n2Cc2ccc(C(=O)NO)cc2)C1 [Tubastatin A]
Method in brief: as §1

[6] = compound: CNC(=O)C1=CC=CC=C1NC2=NC(=NC=C2Cl)NC3=C(C=C(C=C3)N4CCOCC4)OC
Method in brief: as §1

defactinib = compound: CNC(=O)c1ccc(Nc2ncc(C(F)(F)F)c(NCc3nccnc3N(C)S(C)(=O)=O)n2)cc1 [defactinib]
Method in brief: as §1

[7] = compound: CNc1nc(-c2ccc3c(N)n[nH]c3c2)cc(N2C[C@@H](C(=O)NC3CCCCC3)CC[C@H]2C)n1
Method in brief: as §1

encorafenib = compound: COC(=O)N[C@@H](C)CNc1nccc(-c2cn(C(C)C)nc2-c2cc(Cl)cc(NS(C)(=O)=O)c2F)n1 [encorafenib]
Method in brief: as §1

[8] = compound: COC(=O)[C@H](CCSC)NC(=O)C1=C(C=C(C=C1)NC[C@H](CS)N)C2=CC=CC=C2
Method in brief: as §1

alisertib = compound: COc1cc(Nc2ncc3c(n2)-c2ccc(Cl)cc2C(c2c(F)cccc2OC)=NC3)ccc1C(=O)O [alisertib]
Method in brief: as §1

[9] = compound: COc1cc2nc(-c3cc(F)ccc3O)nc(N[C@@H]3CNC[C@H]3C(C)(C)O)c2cc1OC
Method in brief: as §1

gefitinib = compound: COc1cc2ncnc(Nc3ccc(F)c(Cl)c3)c2cc1OCCCN1CCOCC1 [gefitinib]
Method in brief: as §1

Target | log2 fold change (vemurafenib) | log2 fold change [1] | log2 fold change (barasertib) | log2 fold change [2] | log2 fold change (volasertib) | log2 fold change [3] | log2 fold change [4] | log2 fold change [5] | log2 fold change (saracatinib) | log2 fold change (sotrastaurin) | log2 fold change (alvocidib) | log2 fold change (Tubastatin A) | log2 fold change [6] | log2 fold change (defactinib) | log2 fold change [7] | log2 fold change (encorafenib) | log2 fold change [8] | log2 fold change (alisertib) | log2 fold change [9] | log2 fold change (gefitinib)
TMEM68 (UniProt Q96MH6) | inactive: 0.076 | inactive: 0.066 | inactive: 0.036 | inactive: 0.044 | inactive: 0 | inactive: 0.033 | inactive: -0.093 | inactive: 0.042 | inactive: -0.014 | inactive: -0.003 | inactive: -0.004 | inactive: -0.019 | inactive: 0.041 | inactive: 0.024 | inactive: 0.029 | inactive: 0.05 | inactive: -0.001 | inactive: -0.049 | inactive: -0.051 | inactive: 0.017
TONSL (UniProt Q96HA7) | inactive: 0.029 | inactive: 0.1 | inactive: 0.015 | inactive: -0.098 | inactive: -0.099 | inactive: 0.017 | inactive: -0.021 | inactive: -0.03 | inactive: -0.001 | inactive: 0.055 | inactive: -0.106 | inactive: -0.155 | inactive: -0.004 | inactive: 0.05 | inactive: -0.03 | inactive: 0.063 | inactive: 0.138 | inactive: -0.024 | inactive: -0.006 | inactive: -0.017
TOP1 (UniProt P11387) | inactive: -0.002 | inactive: 0.011 | inactive: 0.024 | inactive: -0.021 | inactive: -0.008 | inactive: 0.019 | inactive: -0.003 | inactive: -0.005 | inactive: 0.001 | inactive: 0.028 | inactive: 0.011 | inactive: -0.066 | inactive: -0.046 | inactive: -0.01 | inactive: -0.037 | inactive: 0.027 | inactive: 0.077 | inactive: -0.012 | inactive: -0.006 | inactive: 0
TMEM30A (UniProt Q9NV96) | inactive: 0.002 | inactive: -0.016 | inactive: -0.004 | inactive: 0.067 | inactive: 0.027 | inactive: 0.004 | inactive: 0.08 | inactive: 0.005 | inactive: -0.024 | inactive: 0.01 | inactive: 0.004 | inactive: -0.018 | inactive: 0 | inactive: 0.045 | inactive: 0.152 | inactive: 0.012 | inactive: -0.036 | inactive: 0.08 | inactive: 0.011 | inactive: 0
TOM1 isoform 2 (UniProt O60784) | inactive: -0.006 | inactive: -0.024 | inactive: 0.022 | inactive: 0.046 | inactive: -0.031 | inactive: -0.029 | inactive: -0.03 | inactive: -0.017 | inactive: 0.017 | inactive: -0.008 | inactive: -0.005 | inactive: 0.023 | inactive: 0.006 | inactive: 0.012 | inactive: 0.047 | inactive: 0.03 | inactive: 0.003 | inactive: -0.089 | inactive: 0.016 | inactive: -0.065
TMUB2 (UniProt Q71RG4) | inactive: -0.013 | inactive: 0.137 | inactive: 0.063 | inactive: -0.034 | inactive: -0.149 | inactive: -0.028 | inactive: 0.089 | inactive: -0.061 | inactive: -0.018 | inactive: 0.019 | inactive: -0.088 | inactive: 0.059 | inactive: 0.065 | inactive: 0.068 | inactive: 0.003 | inactive: 0.218 | inactive: -0.091 | inactive: 0 | inactive: -0.053 | inactive: -0.119
TPP1 (UniProt O14773) | inactive: -0.032 | inactive: 0.014 | inactive: 0.026 | inactive: 0.022 | inactive: -0.048 | inactive: 0.005 | inactive: -0.025 | inactive: -0.018 | inactive: -0.002 | inactive: 0.033 | inactive: 0.014 | inactive: -0.077 | inactive: 0.01 | inactive: 0.057 | inactive: -0.003 | inactive: 0.004 | inactive: 0.046 | inactive: 0.029 | inactive: 0.019 | inactive: -0.002
TMEM69 (UniProt Q5SWH9) | inactive: 0.095 | inactive: -0.02 | inactive: -0.196 | inactive: -0.035 | inactive: 0.019 | inactive: -0.063 | inactive: -0.225 | inactive: 0.108 | inactive: -0.008 | inactive: 0.002 | inactive: -0.052 | inactive: -0.056 | inactive: 0.051 | inactive: 0.083 | inactive: 0.048 | inactive: -0.03 | inactive: 0.208 | inactive: -0.028 | inactive: 0 | inactive: 0.054
TOP2B isoform 2 (UniProt Q02880) | inactive: -0.031 | inactive: 0.024 | inactive: 0.008 | inactive: -0.037 | inactive: -0.007 | inactive: -0.003 | inactive: 0.209 | inactive: -0.077 | inactive: 0.033 | inactive: 0.018 | inactive: 0.092 | inactive: -0.039 | inactive: 0.042 | inactive: 0.031 | inactive: 0.009 | inactive: 0.021 | inactive: 0.034 | inactive: -0.006 | inactive: -0.011 | inactive: -0.006
TP53BP1 isoform 2 (UniProt Q12888) | inactive: -0.019 | inactive: 0.02 | inactive: 0.009 | inactive: 0.015 | inactive: 0.012 | inactive: -0.021 | inactive: -0.031 | inactive: 0.033 | inactive: 0.022 | inactive: 0.023 | inactive: -0.002 | inactive: -0.001 | inactive: -0.002 | inactive: -0.006 | inactive: -0.006 | inactive: 0.017 | inactive: -0.011 | inactive: -0.017 | inactive: 0.021 | inactive: 0.028
TOLLIP (UniProt Q9H0E2) | inactive: 0.025 | inactive: 0 | inactive: 0.004 | inactive: 0.047 | inactive: -0.011 | inactive: 0.045 | inactive: -0.064 | inactive: 0.025 | inactive: 0 | inactive: -0.099 | inactive: -0.013 | inactive: -0.007 | inactive: -0.016 | inactive: 0.005 | inactive: 0.052 | inactive: 0.046 | inactive: 0.02 | inactive: -0.021 | inactive: 0.008 | inactive: 0.067
TOMM7 (UniProt Q9P0U1) | inactive: 0 | inactive: 0.013 | inactive: 0.042 | inactive: 0.056 | inactive: 0.034 | inactive: -0.061 | inactive: -0.091 | inactive: -0.049 | inactive: -0.002 | inactive: -0.13 | inactive: -0.031 | inactive: 0.128 | inactive: 0.073 | inactive: 0.024 | inactive: 0.046 | inactive: 0.019 | inactive: -0.016 | inactive: -0.004 | inactive: 0.019 | inactive: -0.119
TP53BP2 isoform 3 (UniProt Q13625) | inactive: 0.079 | inactive: 0.007 | inactive: 0.06 | inactive: 0.054 | inactive: -0.054 | inactive: 0.02 | inactive: 0.059 | inactive: -0.025 | inactive: 0.018 | inactive: 0.022 | inactive: 0.047 | inactive: -0.032 | inactive: 0.038 | inactive: -0.006 | inactive: -0.018 | inactive: 0.007 | inactive: 0.025 | inactive: 0.007 | inactive: -0.02 | inactive: 0.076
TOR4A (UniProt Q9NXH8) | inactive: -0.041 | inactive: -0.015 | inactive: 0.001 | inactive: 0.09 | inactive: -0.031 | inactive: 0.042 | inactive: -0.031 | inactive: -0.017 | inactive: 0.049 | inactive: 0.017 | inactive: 0.046 | inactive: -0.029 | inactive: -0.015 | inactive: 0.032 | inactive: 0 | inactive: 0.059 | inactive: -0.036 | inactive: -0.017 | inactive: -0.008 | inactive: 0
TNFRSF8 (UniProt P28908) | inactive: -0.036 | inactive: -0.033 | inactive: 0.062 | inactive: 0.052 | inactive: 0.038 | inactive: -0.003 | inactive: -0.051 | inactive: 0.042 | inactive: -0.019 | inactive: 0.022 | inactive: -0.069 | inactive: 0.043 | inactive: 0.009 | inactive: -0.028 | inactive: -0.005 | inactive: 0.037 | inactive: -0.025 | inactive: -0.005 | inactive: -0.006 | inactive: -0.004
TMEM70 (UniProt Q9BUB7) | inactive: -0.016 | inactive: 0.029 | inactive: 0.063 | inactive: -0.072 | inactive: -0.004 | inactive: -0.027 | active: -0.378 | inactive: 0.027 | inactive: 0.023 | inactive: 0.122 | inactive: -0.037 | inactive: -0.015 | inactive: -0.025 | inactive: -0.001 | inactive: -0.056 | inactive: 0.021 | inactive: -0.002 | inactive: 0.024 | inactive: -0.041 | inactive: -0.036

Already shown: entries from further up.
Target | log2 fold change (vemurafenib) | log2 fold change [1] | log2 fold change (barasertib) | log2 fold change [2] | log2 fold change (volasertib) | log2 fold change [3] | log2 fold change [4] | log2 fold change [5] | log2 fold change (saracatinib) | log2 fold change (sotrastaurin) | log2 fold change (alvocidib) | log2 fold change (Tubastatin A) | log2 fold change [6] | log2 fold change (defactinib) | log2 fold change [7] | log2 fold change (encorafenib) | log2 fold change [8] | log2 fold change (alisertib) | log2 fold change [9] | log2 fold change (gefitinib)
TOP2B isoform 2 (UniProt Q02880) | inactive: -0.031 | inactive: 0.024 | inactive: 0.008 | inactive: -0.037 | inactive: -0.007 | inactive: -0.003 | inactive: 0.209 | inactive: -0.077 | inactive: 0.033 | inactive: 0.018 | inactive: 0.092 | inactive: -0.039 | inactive: 0.042 | inactive: 0.031 | inactive: 0.009 | inactive: 0.021 | inactive: 0.034 | inactive: -0.006 | inactive: -0.011 | inactive: -0.006
TP53BP1 isoform 2 (UniProt Q12888) | inactive: -0.019 | inactive: 0.02 | inactive: 0.009 | inactive: 0.015 | inactive: 0.012 | inactive: -0.021 | inactive: -0.031 | inactive: 0.033 | inactive: 0.022 | inactive: 0.023 | inactive: -0.002 | inactive: -0.001 | inactive: -0.002 | inactive: -0.006 | inactive: -0.006 | inactive: 0.017 | inactive: -0.011 | inactive: -0.017 | inactive: 0.021 | inactive: 0.028
